This is a selection; strong and weak results do not stand in their true shares. The calls were merged from several studies; some rest on single wells.
Legend:
Conditions in all cases: stereoisomer not certain
[1] = target: T1, OR10A5 (Homo sapiens) (UniProt Q9H207)
T1 sequence (whole entry): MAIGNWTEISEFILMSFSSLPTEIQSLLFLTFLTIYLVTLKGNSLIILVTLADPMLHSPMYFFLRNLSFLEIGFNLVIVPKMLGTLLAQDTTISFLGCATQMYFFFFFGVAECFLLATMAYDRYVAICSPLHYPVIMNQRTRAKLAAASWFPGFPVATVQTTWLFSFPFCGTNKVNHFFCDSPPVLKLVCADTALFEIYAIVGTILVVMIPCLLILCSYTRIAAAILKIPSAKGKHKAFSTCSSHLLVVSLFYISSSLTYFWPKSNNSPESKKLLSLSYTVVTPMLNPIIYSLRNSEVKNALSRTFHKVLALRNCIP
Summary of the method: (§1)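 Transient luciferase assays in mammalian cell lines were common, though methods varied by source. The values come from published papers and their supplementary material, with extra details from the original authors when needed. Responsive refers to a measured signal the original authors judged statistically different from baseline, and non-responsive (inactive) to the remainder.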

By UniProt entry, the sequences of proteins in these tests, tags left out. Where a name states a change or a piece, a line headed by the entry shows the natural chain unless it says otherwise.
UniProt O60403: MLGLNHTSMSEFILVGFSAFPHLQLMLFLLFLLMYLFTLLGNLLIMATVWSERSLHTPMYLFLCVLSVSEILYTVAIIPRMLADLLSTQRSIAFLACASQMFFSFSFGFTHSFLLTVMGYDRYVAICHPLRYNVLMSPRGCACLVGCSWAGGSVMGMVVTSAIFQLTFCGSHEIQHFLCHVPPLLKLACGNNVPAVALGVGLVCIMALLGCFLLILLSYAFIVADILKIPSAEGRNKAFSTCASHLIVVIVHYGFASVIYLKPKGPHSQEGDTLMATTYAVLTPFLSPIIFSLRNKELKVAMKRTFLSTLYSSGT

[2] = target: T2, OR10A6 (Homo sapiens) (UniProt Q8NH74)
T2 sequence (whole entry): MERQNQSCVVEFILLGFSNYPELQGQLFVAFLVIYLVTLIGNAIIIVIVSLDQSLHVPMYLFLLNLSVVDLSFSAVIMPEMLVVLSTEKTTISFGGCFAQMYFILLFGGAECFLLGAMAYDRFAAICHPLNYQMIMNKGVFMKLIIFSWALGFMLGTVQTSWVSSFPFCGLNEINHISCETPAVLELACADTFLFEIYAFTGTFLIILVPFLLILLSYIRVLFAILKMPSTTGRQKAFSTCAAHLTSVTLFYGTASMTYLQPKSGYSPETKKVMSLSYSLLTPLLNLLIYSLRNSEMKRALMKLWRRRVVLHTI
Summary of the method: as §1

[3] = target: T3, OR10A7 (Homo sapiens) (UniProt Q8NGE5)
T3 sequence (whole entry): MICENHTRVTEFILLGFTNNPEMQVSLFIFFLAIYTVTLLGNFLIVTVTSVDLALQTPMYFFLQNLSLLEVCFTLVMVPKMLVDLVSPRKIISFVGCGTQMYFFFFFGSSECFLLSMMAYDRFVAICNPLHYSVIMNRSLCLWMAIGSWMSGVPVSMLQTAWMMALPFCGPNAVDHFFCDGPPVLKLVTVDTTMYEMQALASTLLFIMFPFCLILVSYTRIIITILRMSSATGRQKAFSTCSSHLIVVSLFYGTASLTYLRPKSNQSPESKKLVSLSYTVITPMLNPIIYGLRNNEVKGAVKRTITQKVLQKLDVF
Summary of the method: as §1

[4] = target: T4, OR10AG1 (Homo sapiens) (UniProt Q8NH19)
T4 sequence (whole entry): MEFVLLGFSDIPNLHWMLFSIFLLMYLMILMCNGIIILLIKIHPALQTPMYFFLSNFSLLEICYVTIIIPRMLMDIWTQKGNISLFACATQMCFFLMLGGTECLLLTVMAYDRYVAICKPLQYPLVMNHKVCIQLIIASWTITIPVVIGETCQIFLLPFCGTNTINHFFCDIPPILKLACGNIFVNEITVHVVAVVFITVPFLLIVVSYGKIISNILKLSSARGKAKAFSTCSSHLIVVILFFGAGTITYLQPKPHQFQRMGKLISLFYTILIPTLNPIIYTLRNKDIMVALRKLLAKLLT
Summary of the method: as §1

[5] = target: T5, OR10C1 (Homo sapiens) (UniProt Q96KK4)
T5 sequence (whole entry): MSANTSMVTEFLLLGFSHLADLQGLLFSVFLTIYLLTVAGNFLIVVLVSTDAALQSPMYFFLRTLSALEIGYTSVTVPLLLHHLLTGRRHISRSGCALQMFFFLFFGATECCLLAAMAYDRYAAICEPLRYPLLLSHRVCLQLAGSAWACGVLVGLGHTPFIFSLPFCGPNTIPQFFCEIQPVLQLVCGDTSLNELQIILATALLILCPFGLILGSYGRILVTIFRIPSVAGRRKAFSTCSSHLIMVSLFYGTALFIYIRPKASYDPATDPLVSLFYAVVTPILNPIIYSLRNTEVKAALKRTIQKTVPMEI
Summary of the method: as §1

[6] = target: T6, OR10G6 (Homo sapiens) (UniProt Q8NH81)
T6 sequence (whole entry): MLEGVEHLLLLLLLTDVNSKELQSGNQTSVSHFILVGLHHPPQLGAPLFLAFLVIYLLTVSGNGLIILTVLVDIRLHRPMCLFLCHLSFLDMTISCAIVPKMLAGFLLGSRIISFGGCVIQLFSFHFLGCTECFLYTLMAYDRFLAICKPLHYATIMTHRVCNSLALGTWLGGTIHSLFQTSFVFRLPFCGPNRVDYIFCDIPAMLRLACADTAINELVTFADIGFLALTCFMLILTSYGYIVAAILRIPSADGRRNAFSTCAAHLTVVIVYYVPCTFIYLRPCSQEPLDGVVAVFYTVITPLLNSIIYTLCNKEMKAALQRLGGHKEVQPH
Summary of the method: as §1

[7] = target: T7, OR10G7 (Homo sapiens) (UniProt Q8NGN6)
T7 sequence (whole entry): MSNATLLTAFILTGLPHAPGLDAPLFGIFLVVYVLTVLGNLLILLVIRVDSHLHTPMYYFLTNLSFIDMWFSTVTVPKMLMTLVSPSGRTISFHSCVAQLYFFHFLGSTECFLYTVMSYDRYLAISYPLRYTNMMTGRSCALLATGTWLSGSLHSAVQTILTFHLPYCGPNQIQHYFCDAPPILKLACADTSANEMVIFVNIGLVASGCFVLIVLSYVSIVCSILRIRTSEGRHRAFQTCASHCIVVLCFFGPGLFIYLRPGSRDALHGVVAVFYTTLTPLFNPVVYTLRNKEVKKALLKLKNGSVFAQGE
Summary of the method: as §1

[8] = target: T8, OR10G8 (Homo sapiens) (UniProt Q8NGN5)
T8 sequence (whole entry): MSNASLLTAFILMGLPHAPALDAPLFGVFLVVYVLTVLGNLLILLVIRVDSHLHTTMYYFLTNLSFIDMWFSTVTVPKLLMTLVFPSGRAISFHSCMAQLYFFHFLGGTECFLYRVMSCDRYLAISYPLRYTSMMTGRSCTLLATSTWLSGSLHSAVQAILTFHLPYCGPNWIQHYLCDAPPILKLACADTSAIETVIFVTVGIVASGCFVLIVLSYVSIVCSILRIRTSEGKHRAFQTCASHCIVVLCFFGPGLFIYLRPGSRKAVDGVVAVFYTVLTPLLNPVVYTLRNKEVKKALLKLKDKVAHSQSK
Summary of the method: as §1

[9] = target: T9, OR10H1 (Homo sapiens) (UniProt Q9Y4A9)
T9 sequence (whole entry): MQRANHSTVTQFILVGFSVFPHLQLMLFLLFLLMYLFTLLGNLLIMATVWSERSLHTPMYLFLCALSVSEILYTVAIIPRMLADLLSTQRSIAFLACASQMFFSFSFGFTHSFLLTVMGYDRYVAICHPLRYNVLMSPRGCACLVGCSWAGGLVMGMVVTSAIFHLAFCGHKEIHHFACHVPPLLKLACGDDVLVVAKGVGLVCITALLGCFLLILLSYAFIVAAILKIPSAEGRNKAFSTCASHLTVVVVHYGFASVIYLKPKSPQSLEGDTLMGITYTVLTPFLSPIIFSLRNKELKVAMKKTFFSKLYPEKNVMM
Summary of the method: as §1

[10] = target: T10, OR10H3 (Homo sapiens) (UniProt O60404)
T10 sequence (whole entry): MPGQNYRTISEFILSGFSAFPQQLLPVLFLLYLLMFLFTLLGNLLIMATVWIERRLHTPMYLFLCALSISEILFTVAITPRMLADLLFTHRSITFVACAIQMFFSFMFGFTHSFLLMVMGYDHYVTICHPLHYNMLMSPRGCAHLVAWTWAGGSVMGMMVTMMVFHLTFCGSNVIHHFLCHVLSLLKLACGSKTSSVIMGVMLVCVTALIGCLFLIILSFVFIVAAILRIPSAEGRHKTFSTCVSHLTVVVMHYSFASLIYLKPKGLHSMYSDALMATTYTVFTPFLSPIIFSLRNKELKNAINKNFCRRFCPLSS
Summary of the method: as §1

[11] = target: T11, OR10H4 (Homo sapiens) (UniProt Q8NGA5)
T11 sequence (whole entry): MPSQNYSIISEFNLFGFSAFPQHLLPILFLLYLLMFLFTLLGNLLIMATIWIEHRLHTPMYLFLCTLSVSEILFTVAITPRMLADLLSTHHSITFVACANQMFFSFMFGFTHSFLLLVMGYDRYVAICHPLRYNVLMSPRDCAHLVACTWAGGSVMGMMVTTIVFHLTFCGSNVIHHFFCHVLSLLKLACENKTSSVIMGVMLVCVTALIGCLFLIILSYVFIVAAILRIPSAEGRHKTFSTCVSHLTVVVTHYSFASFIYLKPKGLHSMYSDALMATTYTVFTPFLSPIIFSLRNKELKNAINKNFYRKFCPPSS
Summary of the method: as §1

[12] = target: T12, OR10J5 (Homo sapiens) (UniProt Q8NHC4)
T12 sequence (whole entry): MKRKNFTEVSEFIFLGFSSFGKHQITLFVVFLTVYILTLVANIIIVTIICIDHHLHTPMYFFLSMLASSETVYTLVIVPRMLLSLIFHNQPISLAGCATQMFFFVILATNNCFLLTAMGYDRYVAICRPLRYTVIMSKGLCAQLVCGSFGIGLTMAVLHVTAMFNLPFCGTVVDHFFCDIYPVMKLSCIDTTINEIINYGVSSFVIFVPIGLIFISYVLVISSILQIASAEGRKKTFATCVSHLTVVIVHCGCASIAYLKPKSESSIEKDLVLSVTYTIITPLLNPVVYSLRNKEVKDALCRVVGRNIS
Summary of the method: as §1

[13] = target: OR10H2 (Homo sapiens) (UniProt O60403)
Summary of the method: as §1

[14] = target: T13, OR10G3 (Homo sapiens) (UniProt Q8NGC4)
T13 sequence (whole entry): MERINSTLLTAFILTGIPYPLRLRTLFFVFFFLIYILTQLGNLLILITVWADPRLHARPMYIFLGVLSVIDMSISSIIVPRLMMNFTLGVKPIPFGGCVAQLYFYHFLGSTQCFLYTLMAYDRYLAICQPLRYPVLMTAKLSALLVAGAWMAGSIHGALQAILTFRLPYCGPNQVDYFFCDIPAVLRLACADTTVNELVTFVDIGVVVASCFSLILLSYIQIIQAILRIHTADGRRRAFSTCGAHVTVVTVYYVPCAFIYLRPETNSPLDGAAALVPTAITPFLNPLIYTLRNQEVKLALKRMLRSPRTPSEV
Summary of the method: as §1
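Note: active if original authors judged signal statistically different from baseline.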

SMILES	odorant receptor agonist call [1]	odorant receptor agonist call [2]	odorant receptor agonist call [3]	odorant receptor agonist call [4]	odorant receptor agonist call [5]	odorant receptor agonist call [6]	odorant receptor agonist call [7]	odorant receptor agonist call [8]	odorant receptor agonist call [9]	odorant receptor agonist call [10]	odorant receptor agonist call [11]	odorant receptor agonist call [12]	odorant receptor agonist call [13]	odorant receptor agonist call [14]
CC(C)C(=O)O	inactive	inactive	inactive	inactive	inactive	inactive	active	inactive	inactive	inactive	inactive	inactive	–	–
CCCCCCCCOC(C)=O	inactive	inactive	inactive	inactive	inactive	inactive	active	inactive	inactive	inactive	inactive	inactive	–	–
CC(=O)OCC=C(C)CCC=C(C)C	inactive	active	inactive	inactive	inactive	inactive	active	inactive	inactive	inactive	inactive	inactive	active	–
CC(C)(C)c1ccc(CCC=O)cc1	active	inactive	inactive	inactive	inactive	inactive	inactive	inactive	inactive	inactive	inactive	inactive	–	–
O=C1CCCCCCCCCCCC(=O)OCCO1	inactive	inactive	inactive	inactive	inactive	inactive	inactive	inactive	inactive	inactive	inactive	inactive	–	–
COC(=O)c1ccccc1O	inactive	inactive	inactive	inactive	inactive	inactive	active	inactive	inactive	inactive	inactive	inactive	–	–
CC(C)=CCCC(C)=CC=O	active	inactive	inactive	inactive	inactive	inactive	inactive	inactive	inactive	inactive	inactive	inactive	–	–
CC(C)CCC(=O)O	inactive	inactive	inactive	inactive	inactive	inactive	active	inactive	inactive	inactive	inactive	inactive	–	–
CC=Cc1ccc(O)c(OC)c1	active	active	inactive	inactive	inactive	inactive	active	inactive	inactive	inactive	inactive	inactive	–	–
CCC=CCCO	inactive	inactive	inactive	inactive	inactive	inactive	active	inactive	inactive	inactive	inactive	inactive	–	–
C=CCc1ccc(OC(C)=O)c(OC)c1	active	inactive	inactive	inactive	inactive	inactive	active	inactive	inactive	inactive	inactive	inactive	–	active
C=CCSCC=C	inactive	inactive	inactive	inactive	inactive	inactive	inactive	inactive	inactive	inactive	inactive	inactive	–	–

Quoted from the listing:
Under odorant receptor agonist call [10], `CC(C)CCC(=O)O` shows inactive
Under odorant receptor agonist call [3], `C=CCSCC=C` shows inactive
